The same purity stands for every peptide and may come from a single statement.
Assay: general procedure: Fmoc solid-phase peptide synthesis; Fmoc-Rink-MBHA resin (0.56 mmol/g); Oxyma/DIC
Conditions: whole synthesis, 220 nm

Final HPLC purity, >99%:
Ac-KK(COC3H7)LfKKILKYL-NH2
Ac-KKK(COC11H23)fKKILKYL-NH2
Ac-KKLfK(COC3H7)KILKYL-NH2
Ac-KKLfKK(COC3H7)ILKYL-NH2
Ac-KKLfKKILKYK(COC3H7)-NH2
Ac-KKLfKKILKYK(COC5H11)-NH2
Ac-KKLfKKILKYK(COC11H23)-NH2
Ac-KKLfKKK(COC5H11)LKYL-NH2
Ac-KKLfKKK(COC11H23)LKYL-NH2
Ac-KKLk(COC5H11)KKILKYL-NH2
Ac-KKLk(COC11H23)KKILKYL-NH2
C3H7CO-KKLfKKILKYL-NH2
C5H11CO-KKLfKKILKYL-NH2
